The assay concerns P388 leukemia ip, CD2F1 mice, survival T/C. The assay can be described thus: NCI In Vivo Anticancer Drug Screen. Data for tumor model P388 Leukemia (intraperitoneal) in CD2F1 (CDF1) mice. The following applies: T/C endpoint: median survival time, higher T/C = longer survival.
[1] abbreviates: dose: 100.0 mg/kg/injection, schedule: Q01DX009 (ip), vehicle: saline with Tween-80.
Setting [2] is: dose: 200.0 mg/kg/injection, schedule: Q01DX009 (ip), vehicle: saline with Tween-80.
Setting [3] is: dose: 50.0 mg/kg/injection, schedule: Q01DX005 (ip), vehicle: saline with Tween-80.
Where [4] appears, read: dose: 100.0 mg/kg/injection, schedule: Q01DX005 (ip), vehicle: saline with Tween-80.
Setting [5] is: dose: 240.0 mg/kg/injection, schedule: Q01DX005 (ip), vehicle: saline with Tween-80.
[6] abbreviates: dose: 200.0 mg/kg/injection, schedule: Q01DX005 (ip), vehicle: saline with Tween-80.
[7] abbreviates: dose: 50.0 mg/kg/injection, schedule: Q01DX009 (ip), vehicle: Klucel (hydroxypropylcellulose) (HPC).
The mark [8] stands for this setting: dose: 200.0 mg/kg/injection, schedule: Q01DX009 (ip), vehicle: Klucel (hydroxypropylcellulose) (HPC).
The mark [9] stands for this setting: dose: 25.0 mg/kg/injection, schedule: Q01DX009 (ip), vehicle: Klucel (hydroxypropylcellulose) (HPC).

The list shows only some results of the screen, not a fair sample: it is rich in T/C values a quarter to a half above the control, in often repeated tests (any T/C) and in doses without a T/C. Other doses and runs of a compound stand elsewhere. T/C: endpoint of the treated group in % of that of the vehicle group. Some doses have a count of surviving animals in place of a T/C: the source holds a T/C of zero for them, seemingly a mark for toxic or unscored doses. Some survivor counts are full or nearly so, which does not show that the dose was tolerated: the source hardly ever lists a survival T/C far under the control, and the zero likely stands for such cases as well. Counts of survivors are from the toxicity check (mostly the fifth day) where no day follows; animals may have died later. Schedule codes are those of the source, read here as Q, the interval in days (D) or hours (H), X, the number of doses. Some entries hold several experiments; their values stand side by side, smallest first. Where survival is the endpoint, this PubChem deposit counts one and a half times the control or more as active, and values a quarter to a half above the control carry no call in these data; other NCI protocols may use other cut-offs.

Regarding `C[P+]1(C)CCc2c1ccc1ccccc21`, the survivor count under setting [1] was 3 of 6 and the survivor count under setting [2] is 0 of 6.

`CCC(CO)N=C(C1=C(O)c2ccccc2C1=O)c1ccccc1` (stereo unspecified): the survivor count (dose: 400.0 mg/kg/injection, schedule: Q04DX002 (ip), vehicle: saline with Tween-80) was 3 of 6.

Consider `O=C1c2cc3c(-c4ccccc4)oc(-c4ccccc4)c3cc2C(=O)c2c(O)ccc(O)c21`, for which the survivor count is, setting by setting: under setting [3], 5 of 6; under setting [4], 6 of 6.

With `N=Cc1cc([N+](=O)[O-])ccc1O`, the survivor count under setting [5] is reported as 0 of 6.

Turning to `COc1c(O)c2c(c3cc(C(=O)N4CCc5c4c(O)c(OC)c4[nH]c(C(=O)N6CC7CC78C6=CC(=O)c6[nH]cc(C)c68)cc54)[nH]c13)CCN2C(N)=O` (stereo unspecified), the T/C was 135 % of control (dose: 0.01 mg/kg/injection, schedule: Q04DX003 (ip), vehicle: DMSO); 137 % of control (dose: 0.02 mg/kg/injection, schedule: Q04DX003 (ip), vehicle: DMSO); 147 % of control (dose: 0.04 mg/kg/injection, schedule: Q04DX003 (ip), vehicle: DMSO); 127 % of control (dose: 0.05 mg/kg/injection, schedule: Q04DX003 (ip), vehicle: DMSO); 126 % of control (dose: 0.09 mg/kg/injection, schedule: Q04DX003 (ip), vehicle: DMSO); 136 % of control (dose: 0.11 mg/kg/injection, schedule: Q04DX003 (ip), vehicle: DMSO). Further, the T/C is, setting by setting: (dose: 0.15 mg/kg/injection, schedule: Q04DX003 (ip), vehicle: DMSO) 131 % of control; (dose: 0.25 mg/kg/injection, schedule: Q04DX003 (ip), vehicle: DMSO) 144 % of control; (dose: 3.0 micrograms/kg/injection, schedule: Q04DX003 (ip), vehicle: other) 145 % of control; (dose: 6.0 micrograms/kg/injection, schedule: Q01DX009 (ip), vehicle: other) 131 % of control; (dose: 9.0 micrograms/kg/injection, schedule: Q01DX009 (ip), vehicle: other) 129 % of control; (dose: 13.5 micrograms/kg/injection, schedule: Q01DX009 (ip), vehicle: other) 136 % of control. Besides, the T/C runs as follows: (dose: 30.0 micrograms/kg/injection, schedule: Q04DX003 (ip), vehicle: other) 131 % of control; (dose: 38.9 micrograms/kg/injection, schedule: Q04DX003 (ip), vehicle: DMSO) 147 % of control; (dose: 38.9 micrograms/kg/injection, schedule: Q04DX003 (ip), vehicle: saline) 146 % of control; (dose: 45.0 micrograms/kg/injection, schedule: Q04DX003 (ip), vehicle: other) 141 % of control; (dose: 67.5 micrograms/kg/injection, schedule: Q04DX003 (ip), vehicle: other) 140 % of control; (dose: 108.0 micrograms/kg/injection, schedule: Q04DX003 (ip), vehicle: saline) 143 % of control. Besides, the T/C (dose: 180.0 micrograms/kg/injection, schedule: Q04DX003 (ip), vehicle: saline) is 130 % of control; the T/C (dose: 300.0 micrograms/kg/injection, schedule: Q01DX001 (ip), vehicle: other) was 146 % of control; the T/C (dose: 300.0 micrograms/kg/injection, schedule: Q04DX003 (ip), vehicle: DMSO) was 135 % of control. For the same compound, the survivor count is, setting by setting: (dose: 0.18 mg/kg/injection, schedule: Q04DX003 (ip), vehicle: DMSO) 8 of 8; (dose: 0.3 mg/kg/injection, schedule: Q04DX003 (ip), vehicle: DMSO) 8 of 8; (dose: 0.3 mg/kg/injection, schedule: Q04DX003 (ip), vehicle: other) 6 of 6; (dose: 1.0 mg/kg/injection, schedule: Q04DX003 (ip), vehicle: other) 3 of 6; (dose: 300.0 micrograms/kg/injection, schedule: Q04DX003 (ip), vehicle: other) 5 of 6.

On to `COC(=O)CCCOCCCC(=O)OC`, for which the survivor count (dose: 200.0 mg/kg/injection, schedule: Q01DX009 (ip), vehicle: saline) is 4 of 6.

Consider `CCc1nc(N)nc(N)c1-c1ccc(N(C)C2CCCCC2)c([N+](=O)[O-])c1`, for which the T/C is 127 % of control (dose: 120.0 mg/kg/injection, schedule: Q01DX005 (ip), vehicle: saline with Tween-80) and 126 % of control under setting [5].

As to `CC1OC(Nc2ncnc3nc[nH]c23)C(O)C(O)C1NC(=O)CNC(=O)CCCCCCCCCCCC(C)(C)C` (stereo unspecified), the T/C (dose: 0.5 mg/kg/injection, schedule: Q01DX009 (ip), vehicle: distilled water + Tween-80) is 147 % of control; the T/C (dose: 1.0 mg/kg/injection, schedule: Q01DX009 (ip), vehicle: distilled water + Tween-80) is 136 % of control; the T/C (dose: 2.0 mg/kg/injection, schedule: Q01DX009 (ip), vehicle: distilled water + Tween-80) was 149 % of control.

For `O=c1cccc(C2CC(CO)C3CCCCN3C2)[nH]1` (stereo unspecified), the survivor count (dose: 4.5 mg/kg/injection, schedule: Q01DX009 (ip), vehicle: acid diluted with CMC) was 6 of 6 and the survivor count (dose: 36.0 mg/kg/injection, schedule: Q01DX009 (ip), vehicle: acid diluted with CMC) is 1 of 6.

As to `CC(C)(C)c1ccc2c(cc[n+]3ccccc23)c1`, the survivor count is reported as 0 of 5 under setting [3], 0 of 5 under setting [4] and 0 of 5 under setting [6].

As for `CCOC(=O)Nc1cc(NC/C(CN(C)c2ccc(OC)cc2)=N/O)c([N+](=O)[O-])c(N)n1`, the survivor count under setting [6] is listed as 6 of 6.

As to `CC(C)(C)NC=C(C#N)C#N`, the survivor count is 3 of 6 under setting [7]; 2 of 6 (dose: 100.0 mg/kg/injection, schedule: Q01DX009 (ip), vehicle: Klucel (hydroxypropylcellulose) (HPC)); 0 of 6 under setting [1]; 0 of 6 under setting [8]; 0 of 6 under setting [2]; 0 of 6 (dose: 300.0 mg/kg/injection, schedule: Q01DX009 (ip), vehicle: Klucel (hydroxypropylcellulose) (HPC)).

With `O=C(CCl)c1ccc(Cl)c(Cl)c1`, the survivor count (dose: 400.0 mg/kg/injection, schedule: Q01DX001 (ip), vehicle: other) is given as 3 of 6.

As for `CCOC(=O)Nc1cc2c(c(N)n1)N=C(c1ccc(Cl)cc1)CN2`, the T/C runs as follows: (dose: 6.0 mg/kg/injection, schedule: Q01DX009 (ip), vehicle: Klucel (hydroxypropylcellulose) (HPC)) 125 % of control; (dose: 6.25 mg/kg/injection, schedule: Q01DX009 (ip), vehicle: Klucel (hydroxypropylcellulose) (HPC)) 138 % of control; (dose: 12.5 mg/kg/injection, schedule: Q04DX003 (ip), vehicle: Klucel (hydroxypropylcellulose) (HPC)) 137 % of control; (dose: 25.0 mg/kg/injection, schedule: Q04DX003 (ip), vehicle: Klucel (hydroxypropylcellulose) (HPC)) 137 % of control. The survivor count is, setting by setting: under setting [9], 5 of 6; under setting [7], 3 of 6; (dose: 100.0 mg/kg/injection, schedule: Q04DX003 (ip), vehicle: Klucel (hydroxypropylcellulose) (HPC)) 6 of 6.

Take `Cc1cc(N(CCOS(C)(=O)=O)CCOS(C)(=O)=O)ccc1C=Nc1ccc(-c2csc(-c3ccccc3)n2)c(Cl)c1`: the T/C runs as follows: under setting [9], 140 % of control; under setting [7], 125, 127, 135 % of control. In addition, the survivor count under setting [8] was 5 of 6 and 6 of 6.

In the case of `S=C1CC2CCCC(C2)N1` (stereo unspecified), the survivor count runs as follows: (dose: 15.0 mg/kg/injection, schedule: Q01DX005 (ip), vehicle: Klucel (hydroxypropylcellulose) (HPC)) 6 of 6; (dose: 30.0 mg/kg/injection, schedule: Q01DX005 (ip), vehicle: Klucel (hydroxypropylcellulose) (HPC)) 0 of 6; (dose: 60.0 mg/kg/injection, schedule: Q01DX005 (ip), vehicle: Klucel (hydroxypropylcellulose) (HPC)) 0 of 6; (dose: 120.0 mg/kg/injection, schedule: Q01DX005 (ip), vehicle: Klucel (hydroxypropylcellulose) (HPC)) 0 of 6; (dose: 240.0 mg/kg/injection, schedule: Q01DX005 (ip), vehicle: Klucel (hydroxypropylcellulose) (HPC)) 0 of 6.

The values are drawn from PubChem BioAssay AID330 (DTP/NCI, 2004).
